Results are given in words; binding and its absence hold for the method and conditions named. In cells and extracts the contact can be indirect. Some results given as binding are weak or reduced against the parent protein; the word gives no strength. Tags and fused reporters may be left off the sequences shown.
How the values were obtained:
FLAG-Eps8L2 (human) = biological target: T1, FLAG-Eps8L2 (human) (UniProt Q9H6S3); experiment: co-IP; FLAG-Eps8L2 overexpressed in U2OS cells, then incubated with GFP constructs overexpressed in U2OS cells
T1 sequence: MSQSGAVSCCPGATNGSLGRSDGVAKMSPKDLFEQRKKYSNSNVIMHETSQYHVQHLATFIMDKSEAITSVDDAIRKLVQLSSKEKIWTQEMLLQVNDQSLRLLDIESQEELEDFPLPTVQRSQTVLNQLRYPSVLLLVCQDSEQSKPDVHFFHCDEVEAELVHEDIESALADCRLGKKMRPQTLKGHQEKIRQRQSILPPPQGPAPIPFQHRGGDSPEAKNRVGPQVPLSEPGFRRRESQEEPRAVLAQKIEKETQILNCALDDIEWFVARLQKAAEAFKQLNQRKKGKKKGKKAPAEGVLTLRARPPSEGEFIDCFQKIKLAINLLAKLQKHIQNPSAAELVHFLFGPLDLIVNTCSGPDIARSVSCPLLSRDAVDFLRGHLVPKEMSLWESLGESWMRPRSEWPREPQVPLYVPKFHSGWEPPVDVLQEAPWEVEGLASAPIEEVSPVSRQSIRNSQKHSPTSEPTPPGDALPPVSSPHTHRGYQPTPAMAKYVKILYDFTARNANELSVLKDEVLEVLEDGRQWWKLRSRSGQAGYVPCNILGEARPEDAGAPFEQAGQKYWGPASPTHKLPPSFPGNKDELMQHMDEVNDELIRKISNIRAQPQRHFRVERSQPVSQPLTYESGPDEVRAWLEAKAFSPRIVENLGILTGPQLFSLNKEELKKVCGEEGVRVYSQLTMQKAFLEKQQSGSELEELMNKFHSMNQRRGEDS

GST-Eps8L2 (human) = biological target: T2, GST-Eps8L2 (human) (UniProt Q9H6S3); experiment: pull-down; GST-Eps8L2 or its fragments (20 ug) on glutathione beads, incubated with U2OS lysates (600 ug total protein); 25 mM Tris-HCl, 100 mM NaCl, 1% Triton X-100, 10% glycerol; 3 h at 4°C; only the target purified
T2 sequence: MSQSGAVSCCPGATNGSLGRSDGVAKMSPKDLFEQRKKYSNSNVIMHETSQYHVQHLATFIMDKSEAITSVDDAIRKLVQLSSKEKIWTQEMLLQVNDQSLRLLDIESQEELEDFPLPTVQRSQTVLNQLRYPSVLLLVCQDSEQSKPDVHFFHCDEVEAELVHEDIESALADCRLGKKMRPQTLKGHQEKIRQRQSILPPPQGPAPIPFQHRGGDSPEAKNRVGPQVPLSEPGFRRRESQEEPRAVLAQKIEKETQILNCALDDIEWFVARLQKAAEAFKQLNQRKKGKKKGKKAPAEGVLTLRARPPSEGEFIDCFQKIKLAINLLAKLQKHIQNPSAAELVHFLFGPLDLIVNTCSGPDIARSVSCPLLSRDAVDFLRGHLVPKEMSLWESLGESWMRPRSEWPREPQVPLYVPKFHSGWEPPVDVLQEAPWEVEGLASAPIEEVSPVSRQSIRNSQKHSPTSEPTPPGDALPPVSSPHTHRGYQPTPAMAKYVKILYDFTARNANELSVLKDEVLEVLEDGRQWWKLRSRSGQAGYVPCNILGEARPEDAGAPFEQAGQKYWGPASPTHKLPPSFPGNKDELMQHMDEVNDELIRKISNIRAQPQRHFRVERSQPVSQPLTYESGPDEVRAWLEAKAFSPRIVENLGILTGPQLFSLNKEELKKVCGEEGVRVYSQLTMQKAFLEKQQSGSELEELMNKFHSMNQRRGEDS

[1] = biological target: T3, GST-Eps8L2_367-496 (human) (UniProt Q9H6S3); experiment: as above
T3 sequence: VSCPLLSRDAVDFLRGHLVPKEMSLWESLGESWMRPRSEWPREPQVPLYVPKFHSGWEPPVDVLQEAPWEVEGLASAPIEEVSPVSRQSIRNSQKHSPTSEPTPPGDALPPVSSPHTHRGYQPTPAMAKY

[2] = biological target: T4, GST-Eps8L2_181-299 (human) (UniProt Q9H6S3); experiment: as above
T4 sequence: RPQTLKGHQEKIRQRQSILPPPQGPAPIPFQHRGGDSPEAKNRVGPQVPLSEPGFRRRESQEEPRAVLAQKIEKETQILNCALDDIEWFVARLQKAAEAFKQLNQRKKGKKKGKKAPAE

[3] = biological target: T5, endogenous Eps8L2 (human (endogenous in SKBR-3)) (UniProt Q9H6S3); experiment: co-IP; SKBR-3 lysate (endogenous Eps8L2) mixed with lysates of transfected U2OS cells; Eps8L2 antibody and Protein A/G magnetic beads; overnight at 4°C; washes up to 150 mM KCl
T5 sequence: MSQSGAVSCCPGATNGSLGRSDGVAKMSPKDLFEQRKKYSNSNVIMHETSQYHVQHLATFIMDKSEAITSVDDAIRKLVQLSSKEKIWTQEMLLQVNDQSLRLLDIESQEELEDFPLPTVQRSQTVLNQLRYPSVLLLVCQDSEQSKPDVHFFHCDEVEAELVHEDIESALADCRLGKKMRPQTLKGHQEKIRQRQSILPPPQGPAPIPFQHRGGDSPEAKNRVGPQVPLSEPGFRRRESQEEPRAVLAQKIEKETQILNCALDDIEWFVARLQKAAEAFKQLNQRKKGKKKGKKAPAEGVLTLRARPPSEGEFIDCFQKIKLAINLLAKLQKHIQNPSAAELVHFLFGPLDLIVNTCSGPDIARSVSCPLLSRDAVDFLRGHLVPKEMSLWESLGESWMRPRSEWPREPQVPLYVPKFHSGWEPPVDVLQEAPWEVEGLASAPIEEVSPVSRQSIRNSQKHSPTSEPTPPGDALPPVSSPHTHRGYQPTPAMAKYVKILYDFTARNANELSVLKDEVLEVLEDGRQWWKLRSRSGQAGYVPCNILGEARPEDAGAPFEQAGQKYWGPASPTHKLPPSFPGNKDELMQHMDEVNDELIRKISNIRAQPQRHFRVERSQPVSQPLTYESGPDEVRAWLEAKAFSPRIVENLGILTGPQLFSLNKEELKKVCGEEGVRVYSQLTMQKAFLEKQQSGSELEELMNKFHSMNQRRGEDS

Measured: binding

B1: Ctdnep1_D67E-GFP (enzyme, UniProt Q3TP92 1-244)
chain: MMRTQCLLGLRTFVAFAAKLWSFFIYLLRRQIRTVIQYQTVRYDILPLSPLSRNRLAQVKRKILVLELDETLIHSHHDGVLRPTVRPGTPPDFILKVVIDKHPVRFFVHKRPHVDFFLEVVSQWYELVVFTASMEIYGSAVADKLDNSRSILKRRYYRQHCTLELGSYIKDLSVVHSDLSSIVILDNSPGAYRSHPDNAIPIKSWFSDPSDTALLNLLPMLDALRFTADVRSVLSRNLHQHRLW
binds: FLAG-Eps8L2 (human) | GST-Eps8L2 (human) | [1] | [2] | [3]

B2: Ctdnep1-GFP (enzyme, UniProt Q3TP92 1-244)
chain: MMRTQCLLGLRTFVAFAAKLWSFFIYLLRRQIRTVIQYQTVRYDILPLSPLSRNRLAQVKRKILVLDLDETLIHSHHDGVLRPTVRPGTPPDFILKVVIDKHPVRFFVHKRPHVDFFLEVVSQWYELVVFTASMEIYGSAVADKLDNSRSILKRRYYRQHCTLELGSYIKDLSVVHSDLSSIVILDNSPGAYRSHPDNAIPIKSWFSDPSDTALLNLLPMLDALRFTADVRSVLSRNLHQHRLW
binds: FLAG-Eps8L2 (human) | GST-Eps8L2 (human) | [1] | [2] | [3]
